Values quoted from earlier work in US20260094676A1, “METHOD AND APPARATUS FOR PREDICTING DRUG BIOAVAILABILITY” (LIVERPOOL JOHN MOORES UNIVERSITY, priority 2022, published 2026).
At least one structure is not confirmed: it was looked up by name or label, or the drawing left a doubt.

Settings: concomitant intake of kolanut with halofantrine; cited from earlier work

Structure (SMILES): CCCCNCCC(O)c1cc2c(Cl)cc(Cl)cc2c2cc(C(F)(F)F)ccc12 (stereo not shown) [desbutylhalofantrine]
- AUC, effect of concomitant kolanut: significantly decreased
